Reference: publication PMC12040169 (PLOS Biology, 2025)
The list shows a part of the results.

Test system: T1, CTL2-GFP (C. trachomatis L2/434/Bu, GFP-expressing)
T1 construct: L2/434/Bu, GFP-expressing
Set-up: species or system HeLa; Intracellular C. trachomatis growth in HeLa cells, bulk GFP fluorescence relative to DMSO
Settings: bulk GFP, single well; 28.5 h, 10 µM; inhibitor

SMILES | % of control remaining
C[C@@H]1CN(C(=O)OCc2nccn2C)C[C@H](C)O1 [CBK200142] | 92.4247%
CCOC(=O)C(C(C)=O)(N1CCOCC1)N1CCOCC1 [CBK261173] | 119.493%
O=C(CCN1C(=O)c2ccc(Br)cc2C1=O)N1CCN(Cc2ccccc2)CC1 [CBK269238] | 129.629%
CN(Cc1cccnc1)C(=O)Cc1ccc(-n2cccn2)cc1 [CBK297726] | 164.58%
CCn1c(CN2CCCC2c2noc(C)n2)nc2cc(F)ccc21 (centres unmarked) [CBK305250] | 89.6577%
CN(CCCn1c(=S)[nH]c2ccccc2c1=O)C1CCCCC1 [CBK296642] | 113.654%
CS(=O)(=O)c1ccc(-c2cnc(N)c(NCC3CCOCC3)n2)cc1 [CBK063849] | 120.508%
CCN(CC(=O)NC(C)(C)C)S(=O)(=O)c1cccc(C#N)c1 [CBK306087] | 127.086%
CN(CCC1CCOCC1)c1nc2c(c(=O)[nH]1)Cc1ccccc1OC2 [CBK306622] | 94.275%
O=C(Cn1cc(C(=O)NC2CCCC2)ccc1=O)NCC1(c2ccccc2)CCCC1 [CBK286248] | 112.184%
Nc1ncc(-c2ccc(C(=O)N3CCOCC3)cc2)nc1C(=O)Nc1ccccc1 [CBK149153] | 101.338%
Cc1ccc(S(=O)(=O)NCCSc2nc(-c3ccc([N+](=O)[O-])cc3)c[nH]2)cc1 [CBK268518] | 80.1046%
COc1cc(-c2nnc(SCC(=O)O)n2-c2ccccc2)cc(OC)c1OC [CBK131695] | 112.365%
Cc1nn(C)cc1S(=O)(=O)NCC1(c2ccccc2)CCCC1 [CBK282766] | 127.074%
O=C1COC[C@H]([C@H](O)c2ccc(NC(=O)c3cnccn3)cc2)N1 [CBK289673] | 114.574%
N#Cc1ccc(-c2nc3cc(Cl)c(F)cc3[nH]2)cc1 [CBK096290] | 142.68%
Cc1cccc(OCC(=O)N2CCN(S(=O)(=O)c3ccc([N+](=O)[O-])cc3)CC2)c1 [CBK264221] | 127.155%
COc1cccc2cc(C(=O)NCc3cccc4ccccc34)oc12 [CBK149800] | 91.3965%
COCCn1c(CO)nnc1[C@H]1C[C@@H](NC(=O)c2cc(O)ccc2F)C1 [CBK307698] | 65.1189%
CC(C)(C)c1ccc(NC(=O)C(=O)NCCCn2ccnc2)cc1 [CBK267358] | 137.69%
Cc1onc(-c2ccccc2)c1C(=O)n1cccn1 [CBK287274] | 123.671%
CN(C)CCCC(=O)Nc1ccc2ncccc2c1 [CBK159824] | 104.025%
CONc1nc(NC(C)(C)C)nc(OCC#N)n1 [CBK263655] | 136.142%
O=C(Nc1ccccc1)Nc1ccccc1C(=O)NCc1ccccc1 [CBK265338] | 127.692%
Cc1cc(NC(=O)c2cc(Cl)sc2Cl)no1 [CBK010872] | 141.198%
CC1CN(C(=S)Nc2ccc3ccccc3c2)CC(C)O1 (centres unmarked) [CBK004993] | 105.07%
COCC1=C(C(=O)OC)[C@H](c2ccc(F)c(F)c2)N(C(=O)NCCCN2CCC(c3cccc(NC(C)=O)c3)CC2)C(=O)N1 [CBK051451C] | 134.541%

SMILES | % of control remaining
CN(C)c1cc(=O)c2cc3c(cc2o1)CCC3 [CBK010017] | 149.378%
O=C1N(CN2CCN(C(c3ccccc3)c3ccccc3)CC2)c2ccccc2C12OCCO2 [CBK265537] | 129.315%
COCCN(Cc1cc2ccc(C)cc2nc1O)C(=O)c1cccs1 [CBK269324] | 99.6175%
N#CCCn1cc(C(=O)N2CCCCC2)c(-c2cccs2)n1 [CBK306194] | 186.019%
CCN1CCN(Cc2ccccc2[N+](=O)[O-])CC1 [CBK261561] | 95.9413%
O=C(NC1CCCC1)C1CCCN1c1nc(O)cc(C(F)(F)F)n1 (centres unmarked) [CBK003927] | 118.9%
O=C(CN1CCCC2(CCN(C(=O)Cc3c[nH]c4ccccc34)C2)C1)Nc1ncccn1 (centres unmarked) [CBK132048] | 109.163%
COc1ccc(Cl)cc1NC(=O)CCSc1ccccc1 [CBK263969] | 120.705%
Clc1ccc(COc2cncc(OC3CCN(CC4CC4)C3)n2)cc1Cl (centres unmarked) [CBK084443] | 118.715%
O=C(NCCOc1ccccc1)N1CCN(Cc2ccccc2)CC1 [CBK155652] | 124.242%
O=C(c1cccnc1)C1CCN(C(=O)Cc2ccc(Cl)cc2)CC1 [CBK283813] | 120.184%
CCC#CC(=O)Nc1cncc(OC2CCNCC2)n1 [CBK026731T] | 103.391%
O/N=C/c1ccc(-c2cc(Cl)ccc2Cl)o1 [CBK288500] | 122.726%
O=C(O)c1ccc(C(=O)O)c2c(C(=O)O)cccc12 [CBK261356] | 100%
O=[N+]([O-])c1ccc(CN2CCC(Oc3cncc(OCc4cccnc4)n3)C2)cc1 (centres unmarked) [CBK084456] | 102.06%
CCOC1(c2ccccc2)N=C2C(Cl)=CC(C(F)(F)F)=CN2N=C1c1ccccc1 (centres unmarked) [CBK020634] | 113.87%
Cc1ccc(C(=O)N2CCC3(CC2)CNC(=O)c2ccccc2O3)o1 [CBK285328] | 131.433%
C[S+]([O-])c1ccc(-c2cnc(NCC3CCN(C(=O)OC(C)(C)C)CC3)cn2)cc1 (centres unmarked) [CBK173723] | 169.086%
Cn1ccc(CN2CCOC(c3nccs3)C2)cc1=O (centres unmarked) [CBK304921] | 120.284%
O=C(CCN1C(=O)c2ccccc2C1=O)NC(=S)Nc1ccccc1 [CBK267595] | 97.753%
CCC(=O)N1CCc2cc(C(O)CN3CCCCC3)ccc21 (centres unmarked) [CBK283111] | 112.23%
Cc1nc2ccc(C(=O)NCCCN3Cc4ccccc4C3)cc2[nH]1 [CBK283301] | 122.178%
CC(C)(C)OC(=O)N1CCC(OCc2cn(-c3ccc(-n4cncn4)cc3)nn2)CC1 [CBK149477] | 166.4%
CNC(=O)c1ccc(-c2ccccc2C)nc1NCCOC [CBK106007] | 100%
Cc1cc(NC(=O)c2cccc(C(F)(F)F)c2)c2ccccc2n1 [CBK116263] | 89.4836%
O=C(NC(N1CCCCC1)C(Cl)(Cl)Cl)c1ccc(Cl)cc1Cl (centres unmarked) [CBK261024] | 98.3408%
O=C(N1CCOCC1)C12CC3CC(CC(C3)C1)C2 [CBK089368] | 96.1948%

SMILES | % of control remaining
Cc1nc[nH]c1CN(Cc1ccccc1)C1CC(C)(C)NC(C)(C)C1 [CBK283178] | 117.018%
O=C(CSCc1ccc(Cl)c(Cl)c1)Nc1ncccn1 [CBK269998] | 141.701%
NS(=O)(=O)c1ccc(NC(=O)CSc2nc3sc4c(c3c(=O)[nH]2)CCC4)cc1 [CBK265554] | 124.553%
O=C(Cc1cccc(F)c1)NCCn1nc(-c2ccco2)ccc1=O [CBK283708] | 129.269%
O=C(Nc1ccc(Oc2cccnc2)cc1)C1CCCN1 (centres unmarked) [CBK282498] | 89.0574%
CCn1ncnc1CN1CCOc2ccc(CO)cc2C1 [CBK307245] | 177.541%
CN1CCC(N(C)C(=O)c2ccc(-c3ccccc3CO)cc2)C1 (centres unmarked) [CBK307432] | 99.7627%
Brc1ccc(OCCCCCCN2CCCCC2)cc1 [CBK261784] | 121.31%
Cc1cc(NC(=O)C2CC2)sc1C(=O)NC(C)c1ccc(F)cc1F (centres unmarked) [CBK296625] | 149.744%
CCOC(=O)C1(Cc2cc(-c3cccc(F)c3)no2)CCNCC1 [CBK284881] | 141.33%
COC(=O)CCCC(=O)n1c(=O)n(CC2CCCCC2)c2ccccc21 [CBK106524] | 106.631%
CC(C)(C)c1cc(C(=O)CSc2nnc(Nc3ccccc3)n2-c2ccccc2)cc(C(C)(C)C)c1O [CBK261033] | 111.716%
O=C(O)C1CC=CCC1C(=O)NCCCCc1ccccc1 (centres unmarked) [CBK265460] | 123.423%
CC1(C)OC2C(C(=O)O)OC(n3cnc4c(N)ncnc43)C2O1 (centres unmarked) [CBK262912] | 100%
Cc1ccc(C2=CCN(CC(=O)N(C)C3CCCCC3)CC2)o1 [CBK283633] | 130.079%
CC(C)(CO)CNc1nc(-c2cccnc2)cnc1N [CBK063475] | 149.402%
CCN(CC)CCCCC1(C)SC(NC2CCCCCC2)=NC1=O (centres unmarked) [CBK113257] | 129.621%
COc1cnc(-c2ccccc2OC)c(NC(=O)Cc2ccccc2)n1 [CBK145260] | 109.754%
Cc1ccc(CN(CCCn2ccnc2)Cc2nc3ccccc3[nH]2)o1 [CBK283103] | 107.284%
c1ccc(-c2nc(-c3ccncc3)sc2-c2ccccc2)cc1 [CBK291203] | 76.4317%
COc1ccc(C(=O)NCc2ccc(S(N)(=O)=O)cc2)cc1[N+](=O)[O-] [CBK263629] | 92.9353%
c1cc(-c2cncc(-c3ccsc3)n2)cs1 [CBK113356] | 147.303%
CSCCCNC(=O)c1cc(-c2ccc(C(=O)N3CCOCC3)cc2)cnc1N [CBK158568] | 106.611%
Cc1cc(Cl)c(S(=O)(=O)N2CC(C)OC(C)C2)cc1OCC(N)=O (centres unmarked) [CBK266452] | 115.161%
Cc1ccc(S(=O)(=O)N2CCN(CCC(=O)O)CC2)cc1 [CBK269443] | 94.6437%
Cc1nc2sc(C(=O)OCc3cc(=O)oc4cc5c(cc34)CCC5)c(C)c2c(=O)[nH]1 [CBK297528] | 96.0527%

Looked up above.
Entry for O=C(Nc1ccc(Oc2cccnc2)cc1)C1CCCN1 (centres unmarked) [CBK282498] under % of control remaining: 89.0574%
Entry for Cc1nn(C)cc1S(=O)(=O)NCC1(c2ccccc2)CCCC1 [CBK282766] under % of control remaining: 127.074%
Entry for Clc1ccc(COc2cncc(OC3CCN(CC4CC4)C3)n2)cc1Cl (centres unmarked) [CBK084443] under % of control remaining: 118.715%
